# Library screen at single concentrations

By UniProt entry, the sequences of proteins in these tests, tags left out.
UniProt P9WFT3, whole entry: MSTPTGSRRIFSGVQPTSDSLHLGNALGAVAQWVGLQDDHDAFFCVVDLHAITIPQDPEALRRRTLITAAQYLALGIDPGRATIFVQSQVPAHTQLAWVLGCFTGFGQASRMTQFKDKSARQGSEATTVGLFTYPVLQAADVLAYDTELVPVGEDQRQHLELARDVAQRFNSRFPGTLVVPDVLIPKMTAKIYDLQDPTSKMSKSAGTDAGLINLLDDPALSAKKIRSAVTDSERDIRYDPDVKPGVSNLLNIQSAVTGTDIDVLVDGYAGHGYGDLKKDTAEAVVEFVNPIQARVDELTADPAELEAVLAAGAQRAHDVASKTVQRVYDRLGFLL
UniProt P9WNZ1, whole entry: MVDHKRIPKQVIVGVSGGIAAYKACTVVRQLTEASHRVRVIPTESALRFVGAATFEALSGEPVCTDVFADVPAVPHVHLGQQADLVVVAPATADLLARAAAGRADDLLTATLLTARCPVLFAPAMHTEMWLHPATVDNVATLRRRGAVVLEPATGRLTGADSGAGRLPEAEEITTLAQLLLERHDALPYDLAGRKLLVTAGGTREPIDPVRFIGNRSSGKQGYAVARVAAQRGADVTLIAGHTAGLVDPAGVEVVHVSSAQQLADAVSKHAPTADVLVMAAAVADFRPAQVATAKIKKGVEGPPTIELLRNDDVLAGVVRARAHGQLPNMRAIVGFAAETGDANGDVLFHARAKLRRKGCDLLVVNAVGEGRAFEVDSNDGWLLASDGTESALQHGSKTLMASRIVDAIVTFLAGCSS

The filed quantity is “Percent Effect” (%).
The controls that fix the scale are not given in the record; negative values are as filed.
Compounds were drawn at random from those tested, without regard to their results.
Two or more numbers in one place are separate tests of the same structure; such repeats can differ widely.
A dash means the value is not listed here; it may have been measured.

Leishmania in macrophages: 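Cell assay of Leishmania donovani living inside macrophages; the read-out is not stated. Compounds at 30 µM. The record gives no direction; compounds that gave an IC50 in retests scored well above the rest, so higher reads as stronger inhibition. Size under these conditions: about 69,000 compounds, about 1,000 of them at 50% or above in at least one test.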
MtTrpRS: 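Enzyme assay of tryptophanyl-tRNA synthetase; the read-out is not stated. Target: Tryptophan-tRNA ligase, Mycobacterium tuberculosis (UniProt P9WFT3). Concentration: 10 µM. Direction is not recorded; retested compounds ran higher, which suggests that high means inhibition. About 65,000 compounds were tested under these conditions; 0.098% (about 64) showed 50% or more at least once.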
Toxoplasma: 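Assay of Toxoplasma gondii numbers, read through their beta-galactosidase reporter with a colour substrate. Compounds at 10 µM. The record gives no direction; the compounds picked for IC50 retests had high values, so higher reads as fewer parasites. About 67,000 compounds were tested under these conditions; 0.38% (about 260) showed 50% or more at least once.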
CoaBC: 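Enzyme assay of CoaBC with a phosphate dye (Biomol Green) read at 650 nm. Target: Coenzyme A biosynthesis protein CoaBC, Mycobacterium tuberculosis (UniProt P9WNZ1). Tested at 30 µM. Higher reads as stronger inhibition, judged from the few compounds that gave an IC50. Most strong results did not repeat in a second test. About 67,000 compounds were tested under these conditions; 0.06% (about 40) showed 50% or more at least once.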

SMILES,Leishmania in macrophages,MtTrpRS,Toxoplasma,CoaBC
CCN(Cc1ccco1)C(C)c1nc(C(C)C)no1 (centres unmarked),11.31%,-6.859%,-9.613%,4.303%
COCCN1CC[C@]2(CN(C(=O)c3cccs3)C[C@H]2C)C1=O,17.57%,-3.74%,6.23%,-0.9674%
O=C(O)C(F)(F)F.[H][C@@]12CN(Cc3scnc3C)C[C@H](C(=O)NCC3CC3)[C@]1([H])CCO2,2.28%,-,7.618%,-
COc1cccc(S(=O)(=O)NC(=O)C2CC(c3ccccc3)=NO2)c1 (centres unmarked),20.75%,0.4045%,10.87%,-13.02%
CCOc1c(F)cccc1C(=O)N(c1cccnc1)C(C)C,5.792%,-8.547%,5.227%,0%
[H][C@@]12CCN(Cc3nccs3)[C@]1([H])CC[C@H](C(=O)N1CCN(C)CC1)O2,14.42%,-,9.973%,-
Cn1ccnc1COc1ccc(COC(=O)C2CCCO2)cc1 (centres unmarked),-0.4672%,8.607%,-0.5325%,0%
COc1ccc(C(=O)NCC(=O)N(Cc2ccsc2)C2CC2)cc1OC,1.494%,0.8614%,-1.812%,3.667%
CC(=O)NCc1ccc(C(=O)N2CCCC2c2cnn(C)c2)o1 (centres unmarked),22.15%,-0.4873%,-7.972%,10.18%
[H][C@@]12CS(=O)(=O)C[C@]1([H])N(Cc1ccc(C)c(C)c1)CCN2CC1CC1,18.75%,-,-1.872%,-
CC(=O)NCc1ccc(C(=O)N2CCCC2c2c(C)nn(C)c2C)o1 (centres unmarked),27.69%,2.901%,14.83%,0.9558%
CCC(Nc1nc(C(F)(F)F)nc2ccccc12)C(=O)O (centres unmarked),35.55%,-0.6255%,-1.674%,-2.871%
CCN(CCCNC(=O)c1ccc(C)[nH]c1=O)S(C)(=O)=O,-12.46%,1.615%,-2.021%,0.2016%
CN(C)Cc1nc(C(C)(C)NC(=O)C2CC(=O)N(CC3CC3)C2)no1 (centres unmarked),-34.45%,0.4859%,2.585%,-0.3373%
N#Cc1ccc(N2CCC(OCCc3ccccc3)CC2)nc1,29.56%,-0.9331%,31.4%,4.722%
[H][C@@]12CCC(=O)N(CCCOC)[C@]1([H])CCN(Cc1ccc3nonc3c1)C2,-11.89%,-,-3.106%,-
CC(=O)NCc1ccc(-c2ccccc2C(=O)O)cn1,21.39%,-6.914%,-10.54%,0.4566%
O=C(NCCOCCO)c1cnc(-c2ccccc2)nc1O,7.179%,-0.486%,-10.27%,4.762%
CC(C)(C)c1cc(NC(=O)CN2CCc3cncnc3C2)on1,-7.67%,0.7787%,-3.062%,9.545%
CC(NC(=O)Nc1ccc(-c2csnn2)cc1)C(=O)NC(C)(C)C (centres unmarked),6.062%,1.088%,-20.82%,1.635%
CNc1cc2c(nn1)CCN(C(=O)c1cc(C)no1)C2,11.7%,-2.884%,-2.94%,4.7%
c1cn(CCn2cnnc2)c(-c2cc3n(n2)CCCNC3)n1,4.88%,-6.268%,21.52%,4.575%
CN(Cc1cnn(C)c1)Cc1nc(CCc2ccccc2)no1,-100.7%,-0.6157%,5.043%,-3.433%
c1csc(-c2noc(CN3CCCCC3Cn3cccn3)n2)c1 (centres unmarked),-2.715%,-8.333%,-4.135%,-11.76%
CCN1C(=O)CCC12CCN(C(=O)c1ccco1)CC2,12.9%,-3.052%,-13.5%,8.108%
Cc1cc(NC(=O)c2ccc(CN3CC[C@H](O)C3)cc2)ccc1F,13.9%,-56.83%,11.46%,0%
CCNC(=O)NC(=O)CN1CCOC(c2cccc(Br)c2)C1 (centres unmarked),21.57%,-3.964%,2.949%,2.355%
OC1(CN2CCOC(CNc3cccnn3)C2)CCCCC1 (centres unmarked),25.03%,-12.18%,-15.04%,0.4779%
COc1ccccc1CN1CCC(Cc2cnc(CN(C)C)cn2)CC1,13.66%,-6.131%,-0.03005%,7.039%
CN(CC(=O)NC1(C#N)CCCC1)C1CCCN(c2cccnn2)C1 (centres unmarked),-4.97%,3.996%,-8.851%,3.84%
Cc1ccc2c(c1)OC(C)CN2C(=O)c1c[nH]c(C)cc1=O (centres unmarked),36.39%,0.9032%,3.993%,0.3367%
COc1ccc(CN2CCCC2)cc1Oc1ccc(NC(C)=O)cc1,16.55%,-6.673%,0.05917%,1.653%
Cc1cnn(C2CCCN(C(=O)c3cnc4ccccc4n3)C2)c1 (centres unmarked),28.89%,2.113%,4.997%,2.728%
CCn1nc(C)c(C(=O)N2CCC(Nc3ccc(C)nn3)CC2)c1C,1.55%,2.956%,4.13%,-1.665%
COc1nn(C)c2c1CCCN(C(=O)COc1ccccc1)C2,-10.11%,2.057%,1.296%,3.969%
CC1c2ncc(Cn3cncn3)n2CCN1C(=O)N(C)C (centres unmarked),11.18%,-1.684%,4.099%,-5.302%
CCOCCC(=O)N1CCCC(c2ncc[nH]2)C1 (centres unmarked),8.09%,-3.635%,-28.24%,-1.493%
CN(C)C(=O)COC[C@]12COC[C@H]1CN(C1CCCC1)C2,-,-,-,3.704%
COc1ncnc2c1CCN(Cc1cccc(C)n1)CC2,-2.12%,4.181%,-4.545%,9.208%
CS(=O)(=O)N1CCC(Cc2cnc(Br)cn2)CC1,33.14%,-7.959%,-11.48%,-8.221%
CCc1cccc(N2CCC(NC(=O)c3ccco3)CC2)c1,5.011%,-0.2556%,17.85%,7.506%
Cc1cc(N2CCOC(c3ccncn3)C2)ncn1 (centres unmarked),45.13%,1.834%,-,5.226%
CCC(CC)CN1CCN(CC(=O)Nc2cccc3nsnc23)CC1,17.89%,-4.612%,-0.3976%,-1.302%
CC(C)n1ccnc1CN1CCCN(C(=O)c2cnc[nH]2)CC1,28.77%,-6.684%,9.703%,1.579%
Cc1nn(C)c(C)c1-c1cc(-c2cc(CC(=O)O)cs2)nc(N)c1C#N,27.34%,3.303%,7.766%,-2.836%
CCCc1ncc(C(=O)N2CCOC(c3nc(C)n[nH]3)C2)s1 (centres unmarked),0.5146%,-2.242%,-1.069%,1.305%
COCC(=O)Nc1ccc(-c2noc([C@@H]3CCCN3C)n2)cn1,10.42%,-1.13%,9.961%,11.51%
Cc1nc(NCc2ccccn2)c2c(n1)c(C)nn2C,42.28%,2.007%,13.62%,2.411%
O=S(=O)(c1ccccc1)N1CC[C@]2(C[C@@H](OCC3CC3)CO2)C1,28.13%,6.494%,-11.47%,-5.882%
COc1c(C2CCCN2C(=O)Cc2c(C)noc2C)c(C)nn1C (centres unmarked),17.77%,-1.023%,-,1.028%
Cc1ccc(N2CCN(CC3CC3)C3(CCN(C(C)C)CC3)C2=O)cn1.O=C(O)C(F)(F)F,7.784%,-,-7.282%,-
c1ccc(CN2CCc3ncnc(-c4cncnc4)c3CC2)nc1,-13.71%,0.9053%,15.22%,0.5076%
[H][C@]12CCN(C(=O)C3CC=CC3)[C@@]1([H])CC[C@H](COCC1CCOCC1)O2,-3.266%,-,-4.104%,-
CN(C)CCN1CCOCC12CCN(C(=O)C1CC1)CC2,-,-5.762%,-,1.603%
COCCn1cnc(-c2cc(C(=O)NC(C)C)c3ccccn23)c1,5.377%,3.779%,-1.968%,-
O=S(=O)(c1ccccc1)N1CCCC(c2nccs2)C1 (centres unmarked),4.914% & 5.166%,-3.188%,6.537%,-3.163%
CC(c1nc(C(C)(C)C)no1)N1CCN(Cc2ccco2)CC1 (centres unmarked),18.32%,-3.241%,-4.949%,-2.738%
Cc1cc(CN(C)c2nc(-c3ccco3)nc3c2CCN(C)CC3)on1,-83.89%,1.224%,25.32%,7.403%
[H][C@@]12CN(C(C)=O)C[C@]1(C(=O)NC)CCC21CCN(S(=O)(=O)C2CC2)CC1,-9.204%,-,15.3%,-
COCCN1C=NC2(CCC(C(=O)Nc3ccc(C)cc3)CC2)C1=O (centres unmarked),21.55%,-2.186%,-17.23%,9.167%
COc1ccc(C(=O)N2CCC(Nc3cccnn3)CC2)c(OC)c1,-10.25%,1.657%,-4.331%,3.655%
CN1CC(=O)N(c2ccsc2)CC12CCN(S(=O)(=O)c1ccccc1)C2.O=C(O)C(F)(F)F (centres unmarked),-35.26%,-,8.826%,-
O=C1N(c2cccnc2)CCC12CCCN(Cc1ccoc1)C2 (centres unmarked),-,3.58%,-,0%

The first 8 entries again:

* CCN(Cc1ccco1)C(C)c1nc(C(C)C)no1 (centres unmarked) : Leishmania in macrophages: 11.31%; MtTrpRS: -6.859%; Toxoplasma: -9.613%; CoaBC: 4.303%
* COCCN1CC[C@]2(CN(C(=O)c3cccs3)C[C@H]2C)C1=O : Leishmania in macrophages: 17.57%; MtTrpRS: -3.74%; Toxoplasma: 6.23%; CoaBC: -0.9674%
* O=C(O)C(F)(F)F.[H][C@@]12CN(Cc3scnc3C)C[C@H](C(=O)NCC3CC3)[C@]1([H])CCO2 : Leishmania in macrophages: 2.28%; Toxoplasma: 7.618%
* COc1cccc(S(=O)(=O)NC(=O)C2CC(c3ccccc3)=NO2)c1 (centres unmarked) : Leishmania in macrophages: 20.75%; MtTrpRS: 0.4045%; Toxoplasma: 10.87%; CoaBC: -13.02%
* CCOc1c(F)cccc1C(=O)N(c1cccnc1)C(C)C : Leishmania in macrophages: 5.792%; MtTrpRS: -8.547%; Toxoplasma: 5.227%; CoaBC: 0%
* [H][C@@]12CCN(Cc3nccs3)[C@]1([H])CC[C@H](C(=O)N1CCN(C)CC1)O2 : Leishmania in macrophages: 14.42%; Toxoplasma: 9.973%
* Cn1ccnc1COc1ccc(COC(=O)C2CCCO2)cc1 (centres unmarked) : Leishmania in macrophages: -0.4672%; MtTrpRS: 8.607%; Toxoplasma: -0.5325%; CoaBC: 0%
* COc1ccc(C(=O)NCC(=O)N(Cc2ccsc2)C2CC2)cc1OC : Leishmania in macrophages: 1.494%; MtTrpRS: 0.8614%; Toxoplasma: -1.812%; CoaBC: 3.667%

The values are deposited in ChEMBL (CHEMBL3988442, “University of Dundee, Small-Polar-MMV Screening Library” (2021)).